According to patent publication US20230069590A1, “CONCENTRATED SODIUM VALPROATE FOR RAPID DELIVERY” (priority 2020, published 2023):

System: polytrauma, hemorrhage and TBI
Experiment: Arterial blood gas (Example 2)
Format: in vivo, swine
Settings: VPA 150 mg/kg over 3 h
[1] = IO group, End (end of experiment)
[2] = IO group, Shock (end of hemorrhage/start of shock)
[3] = IO group, Treatment (end of shock/start of NS resuscitation ± VPA)
[4] = IO group, pRBC (start of blood transfusion)
[5] = IV group, End (end of experiment)
[6] = IV group, Shock (end of hemorrhage/start of shock)
[7] = IV group, Treatment (end of shock/start of NS resuscitation ± VPA)
[8] = IV group, pRBC (start of blood transfusion)

CCCC(CCC)C(=O)O [VPA, valproic acid]
HCO3 [1]: 24.3 mM | Hgb [1]: 14.3 g/dL | K [1]: 4.6 mM | Lactate [1]: 3.5 mmol/L | pH [1]: 7.41 | HCO3 [2]: 27.4 mM | Hgb [2]: 10.7 g/dL | K [2]: 4.3 mM | Lactate [2]: 2.8 mmol/L | pH [2]: 7.48 | HCO3 [3]: 22.9 mM | Hgb [3]: 10.0 g/dL | K [3]: 4.3 mM | Lactate [3]: 8.1 mmol/L | pH [3]: 7.37 | HCO3 [4]: 22.4 mM | Hgb [4]: 9.0 g/dL | K [4]: 4.9 mM | Lactate [4]: 6.0 mmol/L | pH [4]: 7.39 | HCO3 [5]: 22.9 mM | Hgb [5]: 13.3 g/dL | K [5]: 5.2 mM | Lactate [5]: 4.1 mmol/L | pH [5]: 7.44 | HCO3 [6]: 22.2 mM | Hgb [6]: 11.4 g/dL | K [6]: 4.6 mM | Lactate [6]: 3.6 mmol/L | pH [6]: 7.46 | HCO3 [7]: 17.5 mM | Hgb [7]: 9.9 g/dL | K [7]: 4.6 mM | Lactate [7]: 9.1 mmol/L | pH [7]: 7.30 | HCO3 [8]: 18.7 mM | Hgb [8]: 8.7 g/dL | K [8]: 5.1 mM | Lactate [8]: 8.0 mmol/L | pH [8]: 7.39
